{
  "source": "paper PMC11330971",
  "binders": {"B1": {"name": "Syntaxin-17 (protein, UniProt Q9D0I4 1-301)", "chain": "MSEDEEKVKLRRLEPAIQKFTKIVIPTDLERLRKHQINIEKYQRCRIWDKLHEEHINAGRTVQQLRSNIREMEKLCLKVHKDDLVLLKRMIDPVKEAAATATAEFLQLHLESVEELKKQVNDEELLQPSLTRSTTVDGVLHTGEAEAASQSLTQIYALPEIPQDQNAAESWETLEADLIELSHLVTDMSLLVSSQQEKIDSIADHVNSAAVNVEEGTKNLQKAAKYKLAALPVAGALIGGVVGGPIGLLAGFKVAGIAAALGGGVLGFTGGKLIQRRKQKMMEKLTSSCPDLPSQSDKKRS"}},
  "biological_target": "T1, vesicle-associated membrane protein 8 (mouse (endogenous in HT22)) (UniProt O70404)",
  "T1 sequence": "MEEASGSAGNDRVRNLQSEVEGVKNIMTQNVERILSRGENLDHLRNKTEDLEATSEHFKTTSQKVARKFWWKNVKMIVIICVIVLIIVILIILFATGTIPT",
  "assay": "co-IP; HT22 cell lysate incubated with Protein A + G magnetic beads conjugated to VAMP8 antibody (5 ug/ml) or normal IgG, 4 °C overnight; western blot; cells 2 h after OGD, with Lv-NSF, Lv-Ctrl, NSF siRNA or si-NC",
  "note": "These are yes or no findings as the source states them, for the method shown. In cells and extracts the contact can be indirect. Some binding calls cover weakened binding; strength is not graded here.",
  "data": [
    {"binder": "B1", "values": [
      {"measurement": "binding", "result": "binds"}
    ]}
  ]
}
